Experimental data: US9181234B2, “Antibacterial compounds” (priority 2010, dated 2015)
Some results were stated once for a whole list of compounds, not compound by compound. For at least one compound, name, drawing or mass did not settle the structure.

Test: Turbidimetric assay: determination of solubility
Experimental: Turbimetric Assay: Determination of Solubility
The solubility of the compounds was measured using a turbidimetric method. A series of doubling dilutions of compounds were prepared in neat dimethyl sulfoxide (DMSO). 5 μl samples were diluted twenty-fold into 95 μl volumes of 100 mM citrate buffer (pH 4), phosphate buffered saline (PBS, pH 7.4) or carbonate-bicarbonate buffer (pH 9) in microtitre assay plates and allowed to reach equilibrium at room temperature for 24 hours. The absorbance within each well of the plate was read spectrophotometrically at a wavelength of 620 nm. A precipitate forms when the maximum aqueous solubility level is reached. The value quoted is the highest concentration where the compound was in solution i.e. where no measurable precipitate was present. […] ND=not determined

[1] = maximum of pH 4, 7.4 and 9, shown at pH 7.4/9

Question: What does the source list for `CCNC(=O)Nc1nc2cc(-c3cnc(N4CCC(CC)(C(=O)O)CC4)nc3)cc(/C=N/OC)c2s1` [Compound 189, 4-Ethyl-1-[5-[2-(ethylcarbamoylamino)-7-[(E)-methoximinomethl]-1,3-benzothiazol-5-yl]pyrimidin-2-yl]piperidine-4-carboxylic acid]?
Answer: Max Solubility [1]: ≧800 μg/mL; Solubility Range (maximum solubility) [1]: VH (VH = “Very High” solubility ≧800 μg/mL); Solubility Range (pH 7.4): VH (VH = “Very High” solubility ≧800 μg/mL); Solubility (pH 7.4) (pH 7.4 (PBS), 24 hours at room temperature, turbidimetric): ≧800 μg/mL
